Measured values reported in patent CN114617961A.
Where a chain is given by its changes, count along the chain named. These are yes or no findings as the source states them, for the method shown. Some results given as binding are weak or reduced against the parent protein; the word gives no strength.

T1: LAG-3 (human) (UniProt P18627)
T1 sequence (looked up): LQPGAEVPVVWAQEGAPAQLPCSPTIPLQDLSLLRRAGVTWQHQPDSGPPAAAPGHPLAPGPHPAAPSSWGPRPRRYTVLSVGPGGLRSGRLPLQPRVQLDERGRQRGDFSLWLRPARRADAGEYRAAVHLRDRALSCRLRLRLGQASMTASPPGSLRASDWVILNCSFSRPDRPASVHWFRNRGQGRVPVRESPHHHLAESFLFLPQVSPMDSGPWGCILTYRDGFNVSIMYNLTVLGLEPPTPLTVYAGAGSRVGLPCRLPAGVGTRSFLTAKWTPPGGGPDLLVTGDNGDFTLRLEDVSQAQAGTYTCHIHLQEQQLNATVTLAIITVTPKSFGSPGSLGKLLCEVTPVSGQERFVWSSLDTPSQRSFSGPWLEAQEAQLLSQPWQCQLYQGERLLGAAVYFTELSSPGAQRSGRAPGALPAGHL

B1: MA-2 鼠源抗体 (mouse IgG1 / mouse Ck) (antibody, V domains shown)
VH: EVQLQQSGAELVKPGASVKLSCTASGFNIKDTYMHWVKQRPEQGLEWIGKIDPANGNTKYDPKFQGKATITADTSSNTAYLQLSRLTSEDTAVYYCARDTTVGLDYWGQGTTLTVSS
VL: DIVLTQTPAIMSASLGEKVTMSCRASSSVNYMYWYQQKSDASPKLWIYYTSNLAPGVPARFSGSGSGNSYSLTISSMEGEDAATYYCQQFTSSPSMTFGGGTKLEIKA
B2: MA-3 鼠源抗体 (mouse IgG1 / mouse Ck) (antibody, V domains shown)
VH: EVKLEESGPELVKPGASVKISCKASGYSFTSYYIHWVKQRPGQGLEWIGWIFPGTGNTRYNEKFKGKATLTADTSSSTVYMQLSGLTSEDSAVYFCARIGGRLTGDAMDYWGQGTSVTVSS
VL: DIVLTQSTASLAVSLGQRATISCRASESVDSYGNSFMHWYQQKPGQPPKLLIYLASNLESGVPARFSGSGSRTDFTLTIDPVEADDAATYYCQQNNEDPWTFGGGTKLEIKA
B3: MA-4 鼠源抗体 (mouse IgG1 / mouse Ck) (antibody, V domains shown)
VH: QVKLEESGPGLVQPSQSLSITCTVSAFSLTTYAVHWVRQSPGKGLEWLGVIWSGGSTDYNTAFISRLNITKDNSKSQVFFKMNSLQANDTAIYYCARLDGTFFDYWGQGTTLTVSS
VL: DIVLTQTPAIMSASLGERVTMTCTASSSVSSSYLHWYQQKPGSSPKLWIYSTSNLASGVPARFSGSGSGTSYSLTISSMEAEDAATYYCHQYHRSPPTFGGGTKLEIKA
B4: 人源化抗体HA-1 (human IgG4 / human Ck) (antibody, V domains shown)
VH: QVQLVQSGAEVKKPGASVKVSCKASGYTFTDTYMHWVRQAPGQGLEWIGKIDPANGNTKYDPKFQGRATITADTSISTAYMELSRLRSDDTAVYYCARDTTVGLDYWGQGTLVTVSS
VL: DIVITQSPAFLSVTPGEKVTITCRASSSVNYMYWYQQKPDASPKLWIYYTSKLASGVPSRFSGSGSGTDYTFTISSLEAEDAATYYCQQWSSNPHTFGGGTKVEIKR
B5: 人源化抗体HA-3 (human IgG4 / human Ck) (antibody, V domains shown)
VH: B4 VH with T28N, F29I
VL: B4 VL with A41Q, S42A, W46L
B6: 人源化抗体HA-4 (human IgG4 / human Ck) (antibody, V domains shown)
VH: B4 VH with T28N, F29I
VL: B4 VL
B7: 人源化抗体HA-5 (human IgG4 / human Ck) (antibody, V domains shown)
VH: B4 VH with T28N, F29I, T30K, R38K, R67K
VL: B4 VL with S59A, D69S
B8: 人源化抗体HA-2 (human IgG4 / human Ck) (antibody, V domains shown)
VH: B4 VH
VL: B4 VL with A41Q, S42A, W46L

The binders below were run against T1, LAG-3 (human) (assay: ELISA on coated LAG-3).

binding	Binder
binds	B1
binds	B2
binds	B3
binds	B4
binds	B5
binds	B6
binds	B7
binds	B8
